Construct, isoform or probe ends are uncertain for at least one entry. At least one verdict was read from the data and is not stated in words by the source.

Chains of the proteins cited; added tags and fusions are not shown.
UniProt Q9NUW8, whole entry: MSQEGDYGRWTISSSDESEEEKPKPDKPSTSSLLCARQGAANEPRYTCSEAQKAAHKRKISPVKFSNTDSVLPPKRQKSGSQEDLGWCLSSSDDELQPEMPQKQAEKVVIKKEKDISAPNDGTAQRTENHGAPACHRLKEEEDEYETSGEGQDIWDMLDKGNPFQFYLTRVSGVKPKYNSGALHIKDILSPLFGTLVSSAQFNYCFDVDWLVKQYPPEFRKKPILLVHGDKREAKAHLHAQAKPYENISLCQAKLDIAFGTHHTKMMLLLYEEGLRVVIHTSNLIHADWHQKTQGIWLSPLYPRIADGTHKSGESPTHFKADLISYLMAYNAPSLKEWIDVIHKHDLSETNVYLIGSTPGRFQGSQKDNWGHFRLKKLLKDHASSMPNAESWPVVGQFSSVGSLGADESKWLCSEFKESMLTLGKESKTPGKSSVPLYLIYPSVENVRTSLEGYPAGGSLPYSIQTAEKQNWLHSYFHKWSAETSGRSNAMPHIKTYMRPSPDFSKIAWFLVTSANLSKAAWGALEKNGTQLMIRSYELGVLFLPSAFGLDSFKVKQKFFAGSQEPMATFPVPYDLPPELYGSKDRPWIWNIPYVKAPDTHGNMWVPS

For the data set, the target named is Tdp1 wild-type (human) (UniProt Q9NUW8). The data set is described as follows: EMSA. Particulars: 1-10 nM Tdp1, on ice, made by UDG, 50 mM Tris-HCl pH 7.5, 50 mM KCl, 10 nM 5'-32P DNA, UDG pretreatment (0.5 U/ul, 15 min, 37 C), complexes formed on ice, 5% native PAGE in TBE at 4 C, recombinant protein, protein details: Ni-chelating resin purification (His tag implied). A general note: In EMSA bound probe runs differently from free probe, usually more slowly.

On to “CTATGGCGAGGCGATTAAGTTGGGUACGTCAGGGTCTTCCGAACGAC / GTCGTTCGGAAGACCCTGACGTTGCCCAACTTAATCGCCTCGCCATAG [dsAP-DNA]”, for which the binding result (AP site at the U of strand 1 (position 25), label: 5'-32P (strand 1)) is given as “binds”. “CTATGGCGAGGCGATTAAGTTGGGUACGTCAGGGTCTTCCGAACGAC [ssAP-DNA]”: the binding result (AP site at the U (position 25), label: 5'-32P, single-stranded DNA) is listed as “binds”.
